Results are given in words; binding and its absence hold for the method and conditions named. Some binding calls cover weakened binding; strength is not graded here.
Target: T1, purified caspase-14 from human cornified cells (heterodimer of large subunit 17 KDa and small subunit 11 KDa) (human) (UniProt P31944)
T1 sequence (looked up) 1: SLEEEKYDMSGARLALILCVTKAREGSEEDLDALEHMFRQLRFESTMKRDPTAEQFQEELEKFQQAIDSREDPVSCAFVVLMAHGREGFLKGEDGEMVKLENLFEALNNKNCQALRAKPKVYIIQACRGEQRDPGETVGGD
T1 sequence (looked up) 2: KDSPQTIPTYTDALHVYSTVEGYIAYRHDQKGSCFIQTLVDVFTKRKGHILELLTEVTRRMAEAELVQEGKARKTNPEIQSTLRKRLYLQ
Assay: inferred from inhibition of caspase-14 activity that was not recovered with extended incubation

- binding: binds
B1: recombinant SCCA-1 (squamous cell carcinoma antigen 1) (protein, UniProt P29508 1-390, looked up)
chain: MNSLSEANTKFMFDLFQQFRKSKENNIFYSPISITSALGMVLLGAKDNTAQQIKKVLHFDQVTENTTGKAATYHVDRSGNVHHQFQKLLTEFNKSTDAYELKIANKLFGEKTYLFLQEYLDAIKKFYQTSVESVDFANAPEESRKKINSWVESQTNEKIKNLIPEGNIGSNTTLVLVNAIYFKGQWEKKFNKEDTKEEKFWPNKNTYKSIQMMRQYTSFHFASLEDVQAKVLEIPYKGKDLSMIVLLPNEIDGLQKLEEKLTAEKLMEWTSLQNMRETRVDLHLPRFKVEESYDLKDTLRTMGMVDIFNGDADLSGMTGSRGLVLSGVLHKAFVEVTEEGAEAAAATAVVGFGSSPTSTNEEFHCNHPFLFFIRQNKTNSILFYGRFSSP

Reference: US20090233319A1
